From PubChem BioAssay AID330 (DTP/NCI, 2004)
The list is a part of this screen's results and no random one: it gathers some chemical classes. Other doses and runs of a compound may be missing. T/C: endpoint of the treated group in % of that of the vehicle group. Some doses have a count of surviving animals in place of a T/C: the source files T/C as zero there, which appears to mark a toxic dose or a test without result, not a measured value. Some doses without a T/C left all or most animals alive at the check, yet need not have been tolerated: survival well below the control is almost never listed, so the zero probably covers shortened survival too. Counts of survivors are from the toxicity check (mostly the fifth day) where no day follows; animals may have died later. Schedules are NCI's codes, read here as Q, the interval in days (D) or hours (H), X, the number of doses. For survival time, the PubChem record calls one and a half times the control and up active, and a quarter to a half above the control has no call in these data; cut-offs in other NCI protocols can differ. Some T/C values carry the count of animals alive at the toxicity check (mostly the fifth day); without a count or a note in brackets, all were alive then. Some entries hold several experiments; their values stand side by side, smallest first. Some complexes appear as separate parts, the way the source draws them; their charges need not add up.

Tested on: P388 leukemia ip, CD2F1 mice, survival T/C
Assay: NCI In Vivo Anticancer Drug Screen. Data for tumor model P388 Leukemia (intraperitoneal) in CD2F1 (CDF1) mice
Conditions: T/C endpoint: median survival time, higher T/C = longer survival
[1] = dose: 12.5 mg/kg/injection, schedule: Q01DX009 (ip), vehicle: saline
[2] = dose: 25.0 mg/kg/injection, schedule: Q01DX009 (ip), vehicle: saline
[3] = dose: 50.0 mg/kg/injection, schedule: Q01DX009 (ip), vehicle: saline
[4] = dose: 100.0 mg/kg/injection, schedule: Q01DX009 (ip), vehicle: saline
[5] = dose: 200.0 mg/kg/injection, schedule: Q01DX009 (ip), vehicle: saline
[6] = dose: 50.0 mg/kg/injection, schedule: Q01DX001 (ip), vehicle: Klucel (hydroxypropylcellulose) (HPC)
[7] = dose: 100.0 mg/kg/injection, schedule: Q01DX001 (ip), vehicle: Klucel (hydroxypropylcellulose) (HPC)
[8] = dose: 200.0 mg/kg/injection, schedule: Q01DX001 (ip), vehicle: Klucel (hydroxypropylcellulose) (HPC)
[9] = dose: 200.0 mg/kg/injection, schedule: Q01DX005 (ip), vehicle: Klucel (hydroxypropylcellulose) (HPC)
[10] = dose: 25.0 mg/kg/injection, schedule: Q01DX001 (ip), vehicle: Klucel (hydroxypropylcellulose) (HPC)
[11] = dose: 400.0 mg/kg/injection, schedule: Q01DX001 (ip), vehicle: Klucel (hydroxypropylcellulose) (HPC)
[12] = dose: 100.0 mg/kg/injection, schedule: Q04DX002 (ip), vehicle: saline with Tween-80
[13] = dose: 200.0 mg/kg/injection, schedule: Q04DX002 (ip), vehicle: saline with Tween-80
[14] = dose: 400.0 mg/kg/injection, schedule: Q04DX002 (ip), vehicle: saline with Tween-80

C1CN1.Nc1ncnc2nc[nH]c12
T/C [1]: 108 [5 of 6 alive] and 109 % of control
T/C (dose: 12.5 mg/kg/injection, schedule: Q04DX003 (ip), vehicle: saline): 97 % of control
T/C [2]: 100 [5 of 6 alive] and 108 % of control
T/C (dose: 25.0 mg/kg/injection, schedule: Q04DX003 (ip), vehicle: saline): 97 % of control
T/C [3]: 98, 103 [5 of 6 alive], 104, 111 % of control
T/C (dose: 50.0 mg/kg/injection, schedule: Q04DX003 (ip), vehicle: saline): 98 % of control
T/C [4]: 88, 107 [5 of 6 alive], 108 [5 of 6 alive], 124 % of control
T/C (dose: 100.0 mg/kg/injection, schedule: Q04DX002 (ip), vehicle: saline): 107 % of control
T/C (dose: 100.0 mg/kg/injection, schedule: Q04DX003 (ip), vehicle: saline): 98 % of control
T/C [5]: 86 % of control [5 of 6 alive]
survivor count [5]: 3 of 6
T/C (dose: 200.0 mg/kg/injection, schedule: Q04DX002 (ip), vehicle: saline): 108 % of control
T/C (dose: 200.0 mg/kg/injection, schedule: Q04DX003 (ip), vehicle: saline): 96 % of control
T/C (dose: 400.0 mg/kg/injection, schedule: Q04DX002 (ip), vehicle: saline): 101 % of control
T/C (dose: 400.0 mg/kg/injection, schedule: Q04DX003 (ip), vehicle: saline): 99 % of control

NC(=O)C1=CN(CCBr)C=CC1
T/C [6]: 100 % of control
T/C [7]: 100 % of control
survivor count [8]: 0 of 6

COc1ccc(C2=CCN(c3ccccc3)P(=O)(Cl)O2)cc1 (stereo unspecified)
T/C (dose: 25.0 mg/kg/injection, schedule: Q01DX005 (ip), vehicle: Klucel (hydroxypropylcellulose) (HPC)): 98 % of control
T/C (dose: 50.0 mg/kg/injection, schedule: Q01DX005 (ip), vehicle: Klucel (hydroxypropylcellulose) (HPC)): 100 and 107 % of control
T/C (dose: 100.0 mg/kg/injection, schedule: Q01DX005 (ip), vehicle: Klucel (hydroxypropylcellulose) (HPC)): 102 and 117 % of control
T/C [9]: 121 % of control
survivor count [9]: 4 of 5

C/C1=C2N=C(/C=C3N=C(/C(C)=C4\[N-]C(C(CC(N)=O)C4(C)CCC(=O)NCC(C)OP(=O)(O)OC4C(CO)OC(n5cnc6cc(C)c(C)cc65)C4O)C4(C)N=C1C(CCC(N)=O)C4(C)CC(N)=O)C(CCC(N)=O)C\3(C)C)C(CCC(N)=O)C/2(C)CC(N)=O.[C-]#N.[Co+2] (stereo unspecified)
T/C [3]: 100 % of control
T/C [4]: 106 % of control
T/C [5]: 106 % of control

CCOP1OCC(C(C)(C)C)CO1 (stereo unspecified)
T/C [1]: 102 % of control
T/C [2]: 109 % of control
T/C [3]: 100 and 111 % of control
survivor count [4]: 0 of 6
survivor count [5]: 0 of 6

ClCCN1CCn2cnc3ncnc-3c21
T/C (dose: 50.0 mg/kg/injection, schedule: Q01DX005 (ip), vehicle: saline): 101 % of control
T/C (dose: 100.0 mg/kg/injection, schedule: Q01DX005 (ip), vehicle: saline): 104 % of control
T/C (dose: 200.0 mg/kg/injection, schedule: Q01DX005 (ip), vehicle: saline): 101 % of control

C/C(=C/c1cnc([N+](=O)[O-])n1C)[N+](=O)[O-]
T/C [10]: 113 % of control
T/C [6]: 115 % of control
T/C [7]: 102 and 116 % of control
survivor count [8]: 0 of 6
survivor count [11]: 0 of 6

CC1CCN(C)C(c2ccccc2)C1.O=[N+]([O-])c1cc([N+](=O)[O-])c(O)c([N+](=O)[O-])c1
T/C (dose: 50.0 mg/kg/injection, schedule: Q01DX005 (ip), vehicle: saline with Tween-80): 100 % of control
T/C (dose: 100.0 mg/kg/injection, schedule: Q01DX005 (ip), vehicle: saline with Tween-80): 100 % of control
T/C (dose: 200.0 mg/kg/injection, schedule: Q01DX005 (ip), vehicle: saline with Tween-80): 97 % of control [4 of 6 alive]

NC(=O)c1cc(I)cc(I)c1N=NN(CCCl)CCCl
T/C (dose: 50.0 mg/kg/injection, schedule: Q01DX009 (ip), vehicle: Klucel (hydroxypropylcellulose) (HPC)): 122 % of control
T/C (dose: 100.0 mg/kg/injection, schedule: Q01DX009 (ip), vehicle: Klucel (hydroxypropylcellulose) (HPC)): 123 % of control
T/C (dose: 200.0 mg/kg/injection, schedule: Q01DX009 (ip), vehicle: Klucel (hydroxypropylcellulose) (HPC)): 145 % of control

COc1ccccc1N1CC=C(c2ccc(Cl)cc2)OP1(=O)Cl (stereo unspecified)
T/C [12]: 100 % of control
T/C [13]: 100 % of control [5 of 6 alive]
T/C [14]: 100 % of control

O=[N+]([O-])N1CN([N+](=O)[O-])CN([N+](=O)[O-])C1
survivor count [4]: 0 of 6
survivor count [5]: 0 of 6
survivor count (dose: 400.0 mg/kg/injection, schedule: Q01DX009 (ip), vehicle: saline): 0 of 6

COc1ccc2nccc(/C=C\c3ccccc3)c2c1.O=[N+]([O-])c1cc([N+](=O)[O-])c(O)c([N+](=O)[O-])c1
T/C (dose: 20.0 mg/kg/injection, schedule: Q01DX009 (ip), vehicle: saline with Tween-80): 90 % of control
survivor count (dose: 40.0 mg/kg/injection, schedule: Q01DX009 (ip), vehicle: saline with Tween-80): 5 of 6
T/C (dose: 80.0 mg/kg/injection, schedule: Q01DX009 (ip), vehicle: saline with Tween-80): 91 % of control

C/C(N)=N/P(=O)(Oc1ccccc1)Oc1ccccc1
T/C (dose: 6.25 mg/kg/injection, schedule: Q01DX009 (ip), vehicle: distilled water + Tween-80): 97 % of control
T/C (dose: 6.25 mg/kg/injection, schedule: Q01DX009 (ip), vehicle: water): 102 % of control
T/C (dose: 12.5 mg/kg/injection, schedule: Q01DX009 (ip), vehicle: distilled water + Tween-80): 96 and 101 % of control
T/C (dose: 12.5 mg/kg/injection, schedule: Q01DX009 (ip), vehicle: water): 100 % of control
T/C (dose: 25.0 mg/kg/injection, schedule: Q01DX009 (ip), vehicle: distilled water + Tween-80): 104 and 120 % of control
T/C (dose: 25.0 mg/kg/injection, schedule: Q01DX009 (ip), vehicle: water): 105 % of control
T/C (dose: 50.0 mg/kg/injection, schedule: Q01DX009 (ip), vehicle: distilled water + Tween-80): 104 and 111 % of control
T/C (dose: 50.0 mg/kg/injection, schedule: Q01DX009 (ip), vehicle: water): 105 % of control
T/C (dose: 100.0 mg/kg/injection, schedule: Q01DX009 (ip), vehicle: distilled water + Tween-80): 99 % of control

CN([PH+](F)F)[PH+](F)F.CN([PH+](F)F)[PH+](F)F.CN([PH+](F)F)[PH+](F)F.[W]
T/C (dose: 12.5 mg/kg/injection, schedule: Q01DX001 (ip), vehicle: Klucel (hydroxypropylcellulose) (HPC)): 106 % of control
T/C [10]: 103 % of control
T/C [6]: 110 % of control
T/C [7]: 114 % of control
T/C [8]: 99 % of control
T/C [11]: 100 % of control

C[Si](C)(C)OC(=O)N(CCCl)CCCl
T/C [10]: 116 % of control
T/C [6]: 127 % of control
T/C [7]: 137 and 166 % of control
survivor count [8]: 2 of 6
survivor count [11]: 1 of 6

C[Si](C)(C)CCOC(=O)N(CCCl)CCCl
T/C [12]: 101 and 102 % of control
T/C [13]: 110 and 114 % of control
T/C [14]: 124 and 132 % of control
T/C (dose: 600.0 mg/kg/injection, schedule: Q04DX002 (ip), vehicle: saline with Tween-80): 133 % of control [5 of 6 alive]

O=C(CBr)CBr
survivor count (dose: 50.0 mg/kg/injection, schedule: Q01DX009 (ip), vehicle: saline with Tween-80): 0 of 6
survivor count (dose: 100.0 mg/kg/injection, schedule: Q01DX009 (ip), vehicle: saline with Tween-80): 0 of 6
survivor count (dose: 200.0 mg/kg/injection, schedule: Q01DX009 (ip), vehicle: saline with Tween-80): 0 of 6
